Counter-ions that a name gives are not always drawn. Some of the results follow. The calls rarely recur for the same compound in another form.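 In K562 cells expressing nanoluciferase-fused kinases, luminescence was recorded at 4 h intervals between 2 and 18 h, normalized as percent of control with DMSO at 100% and a positive control at 0%. A significant (2 sigma) signal drop marks a time point as decreased. The authors' rule for a hit is not shown and takes in more than the number of time points.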
Biological target: CDK9 (UniProt P50750)
Assay: kinase-Nluc reporter destabilization hit call (1 = scored as downregulated) (binary); higher = compound decreases kinase abundance
Settings: K562; 2-18 h

Chains of the proteins cited; added tags and fusions are not shown.
UniProt P50750, whole entry: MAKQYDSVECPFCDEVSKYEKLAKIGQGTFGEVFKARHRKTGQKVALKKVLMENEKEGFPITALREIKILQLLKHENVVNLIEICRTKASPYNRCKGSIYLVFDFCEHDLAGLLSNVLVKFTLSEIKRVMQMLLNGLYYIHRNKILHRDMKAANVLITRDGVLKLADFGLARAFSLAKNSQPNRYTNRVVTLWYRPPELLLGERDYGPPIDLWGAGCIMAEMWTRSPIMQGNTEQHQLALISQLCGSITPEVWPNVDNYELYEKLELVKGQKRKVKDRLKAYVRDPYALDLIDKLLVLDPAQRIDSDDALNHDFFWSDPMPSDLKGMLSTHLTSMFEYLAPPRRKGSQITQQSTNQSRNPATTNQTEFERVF

kinase-Nluc reporter destabilization hit call, inactive:
N#Cc1ccc2[nH]c(O)c(-c3ccc(CN4CCOCC4)cn3)c2c1 (10 µM) 0
O=C1NCCc2[nH]c(-c3ccnc(-c4cnc5ccccc5c4)c3)cc21 (10 µM) 0
Oc1cc(O)cc(/C=C/c2ccc(O)c(O)c2)c1 [Piceatannol] (10 µM) 0
O=C(NOC[C@H](O)CO)c1ccc(F)c(F)c1Nc1ccc(I)cc1F (2.5 µM) 0
Cn1c(=O)n(-c2ccc(C(C)(C)C#N)cc2)c2c3cc(-c4cnc5ccccc5c4)ccc3ncc21 [Dactolisib (Tosylate)] (10 µM) 0
CCCCNc1ncc(-c2ccc(CN3CCOCC3)cn2)c(NC2CCC(O)CC2)n1 (stereo unspecified) (10 µM) 0
O=C(Nc1cc(C(F)(F)F)ccc1N1CCN(Cc2ccccn2)CC1)c1ccc(-c2ccncc2)o1 (10 µM) 0
CC[C@H](CO)Nc1nc(NCc2ccccc2)c2ncn(C(C)C)c2n1 [Seliciclib] (10 µM) 0
COC(=O)c1ccc2c(C(=Nc3ccc(N(C)C(=O)CN4CCN(C)CC4)cc3)c3ccccc3)c(O)[nH]c2c1 [Nintedanib] (2.5 µM) 0
COc1cc(F)cc([C@@H](CO)NC(=O)[C@@H](C)N2Cc3ccc(-c4nc(NC5CCOCC5)ncc4Cl)cc3C2=O)c1 [ERK1/2 inhibitor 2] (10 µM) 0
CC(C)c1ccc2oc3nc(N)c(C(=O)O)cc3c(=O)c2c1 [Amlexanox] (10 µM) 0
CN(C)C[C@@H]1CCn2cc(c3ccccc32)C2=C(C(=O)NC2=O)c2cn(c3ccccc23)CCO1 [Ruboxistaurin (hydrochloride)] (10 µM) 0
CCc1nc(-c2cccc(C)c2)c(-c2ccnc(NC(=O)c3ccccc3)c2)s1 (10 µM) 0
CCOc1cc2ncc(-c3cc(N)nc(F)c3)n2cc1S(=O)(=O)C(C)(C)C (10 µM) 0
CC(C)(/C=C(\C#N)C(=O)N1CCC[C@@H](n2nc(-c3ccc(Oc4ccccc4)cc3F)c3c(N)ncnc32)C1)N1CCN(C2COC2)CC1 (2.5 µM) 0
CCCn1cnc2c(NCc3ccccc3)nc(NC(CC)CO)nc21 (stereo unspecified) [Ca2+ channel agonist 1] (2.5 µM) 0
Brc1c(Br)c(Br)c2n[nH]nc2c1Br (10 µM) 0
Nc1nc(OCC2CCCCC2)c2[nH]cnc2n1 (10 µM) 0
COc1ccc(Oc2cc(NCCC(F)(F)F)c3ncc(-c4ccc(C(=O)NC5CC5)c(C)c4)n3n2)c(F)c1F (2.5 µM) 0
COc1cc(C(=O)NC2CCN(C)CC2)c(F)cc1Nc1ncc2c(n1)N(C1CCCC1)CC(F)(F)C(=O)N2C [TAK-960 (dihydrochloride)] (2.5 µM) 0
COc1ccc(NC(=O)N2CCN(c3nc(N)nc4c3cnn4C)[C@@H](C)C2)c(C)c1 (10 µM) 0
O=C(Nc1ccc(-c2ccnc(Nc3ccc(N4CCOCC4)cc3)n2)cc1)C1CCCN1 (stereo unspecified) (10 µM) 0
COc1nccc(-c2c(-c3ccc(F)cc3)ncn2C2CCC(O)CC2)n1 (stereo unspecified) (10 µM) 0
NC(=O)c1ccc2nc(-c3ccc(Oc4ccc(Cl)cc4)cc3)[nH]c2c1 (10 µM) 0
Cc1cc(C)c(/C=C2\C(=O)Nc3ccccc32)[nH]1 [Semaxinib] (10 µM) 0
COc1ccc(COc2ccc(Cc3cnc(N)nc3N)cc2OC)cc1 (10 µM) 0
CN1CCN(c2ccc(Nc3cc(-c4cccc(-n5ccc6cc(C7CC7)cc(F)c6c5=O)c4CO)cn(C)c3=O)nc2)CC1 (2.5 µM) 0
C=CC(=O)N1CCC[C@@H](n2nc(-c3ccc(Oc4ccccc4)cc3)c(C(N)=O)c2N)C1 [Btk inhibitor 2] (10 µM) 0
Cc1c(NC(=O)c2cc3c(s2)CCCC3)cccc1-c1cn(C)c(=O)c(Nc2ccc([C@@H]3C(=O)N(C)CCN3C)cc2)n1 (10 µM) 0
CCOc1ccn(-c2ccc(F)cc2)c(=O)c1C(=O)Nc1ccc(Oc2ccnc(N)c2Cl)c(F)c1 (10 µM) 0
CCn1c(=O)c2cc(C(N)=O)c(N)nc2n(C2CC2)c1=O (10 µM) 0

In the list so far, 2 contain a CF3 group:
kinase-Nluc reporter destabilization hit call, inactive:
O=C(Nc1cc(C(F)(F)F)ccc1N1CCN(Cc2ccccn2)CC1)c1ccc(-c2ccncc2)o1 (10 µM) 0
COc1ccc(Oc2cc(NCCC(F)(F)F)c3ncc(-c4ccc(C(=O)NC5CC5)c(C)c4)n3n2)c(F)c1F (2.5 µM) 0
